Test results taken from article PMC3338717.
No constants are given. Whether binding was seen depends on the method and setting. Some results given as binding are weak or reduced against the parent protein; the word gives no strength.

B1: CCAAT/enhancer binding protein γ (C/EBPγ), endogenous in MLE12 cells (protein, UniProt P53568 1-150)
chain: MSKLSQPATTPGVNGISVIHTQAHASGLQQVPQLVPAGPGGGGKAVPPSKQSKKSSPMDRNSDEYRQRRERNNMAVKKSRLKSKQKAQDTLQRVNQLKEENERLEAKIKLLTKELSVLKDLFLEHAHSLADNVQPISTETTATNSDNPGQ
B2: mouse C/EBPγ expressed from recombinant adenovirus (Adeno-C/EBPγ) in MLE12 cells (protein, UniProt P53568 1-150)
chain: B1 chain

What was measured:
[1] = target: CCAAT/enhancer binding protein γ (C/EBPγ), endogenous in MLE12 cells (mouse (endogenous in MLE12)) (UniProt P53568); experiment: native gel or EMSA; nuclear extracts of MLE12 cells (untreated or 20 ng/ml IL-1β for 3 h; or infected with Adeno-GFP or Adeno-C/EBPγ at 20 MOI) with 32P-labelled murine IL-6 C/EBP binding site probe, room temperature; supershift with antibodies to C/EBP family members; dimers seen as DNA-bound species
[2] = target: mouse C/EBPγ expressed from recombinant adenovirus (Adeno-C/EBPγ) in MLE12 cells (mouse) (UniProt P53568); experiment: as above

Row | Binder | binding [1] | binding [2]
1 | B1 | binds | 
2 | B2 |  | binds
